Results as given in the supplement of paper PMC10849652.
The other results are listed elsewhere or left out.

Amino acid sequences for entries named in this document (tags omitted). A change or cut given only in a name is not applied to a line headed by its entry.
UniProt Q04941: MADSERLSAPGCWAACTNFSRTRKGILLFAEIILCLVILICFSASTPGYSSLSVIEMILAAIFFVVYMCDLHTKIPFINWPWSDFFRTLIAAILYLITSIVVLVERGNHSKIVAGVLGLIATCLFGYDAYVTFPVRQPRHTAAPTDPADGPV
UniProt Q9NUX5: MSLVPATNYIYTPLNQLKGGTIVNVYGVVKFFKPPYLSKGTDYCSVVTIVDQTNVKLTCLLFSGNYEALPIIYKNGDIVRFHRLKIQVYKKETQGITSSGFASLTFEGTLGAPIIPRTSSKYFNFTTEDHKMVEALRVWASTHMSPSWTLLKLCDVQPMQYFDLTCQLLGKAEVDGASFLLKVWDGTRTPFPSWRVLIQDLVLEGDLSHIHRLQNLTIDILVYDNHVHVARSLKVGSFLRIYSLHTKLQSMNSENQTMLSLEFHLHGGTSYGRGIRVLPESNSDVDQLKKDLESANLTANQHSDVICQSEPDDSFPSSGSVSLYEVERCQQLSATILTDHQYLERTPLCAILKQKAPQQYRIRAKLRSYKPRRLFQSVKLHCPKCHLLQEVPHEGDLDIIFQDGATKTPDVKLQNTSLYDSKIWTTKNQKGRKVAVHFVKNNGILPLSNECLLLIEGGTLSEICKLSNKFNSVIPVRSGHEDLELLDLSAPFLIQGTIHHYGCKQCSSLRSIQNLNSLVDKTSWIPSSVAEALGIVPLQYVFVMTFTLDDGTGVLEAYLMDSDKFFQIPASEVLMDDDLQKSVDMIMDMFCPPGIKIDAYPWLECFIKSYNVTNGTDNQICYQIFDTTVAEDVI
UniProt Q7Z3K3: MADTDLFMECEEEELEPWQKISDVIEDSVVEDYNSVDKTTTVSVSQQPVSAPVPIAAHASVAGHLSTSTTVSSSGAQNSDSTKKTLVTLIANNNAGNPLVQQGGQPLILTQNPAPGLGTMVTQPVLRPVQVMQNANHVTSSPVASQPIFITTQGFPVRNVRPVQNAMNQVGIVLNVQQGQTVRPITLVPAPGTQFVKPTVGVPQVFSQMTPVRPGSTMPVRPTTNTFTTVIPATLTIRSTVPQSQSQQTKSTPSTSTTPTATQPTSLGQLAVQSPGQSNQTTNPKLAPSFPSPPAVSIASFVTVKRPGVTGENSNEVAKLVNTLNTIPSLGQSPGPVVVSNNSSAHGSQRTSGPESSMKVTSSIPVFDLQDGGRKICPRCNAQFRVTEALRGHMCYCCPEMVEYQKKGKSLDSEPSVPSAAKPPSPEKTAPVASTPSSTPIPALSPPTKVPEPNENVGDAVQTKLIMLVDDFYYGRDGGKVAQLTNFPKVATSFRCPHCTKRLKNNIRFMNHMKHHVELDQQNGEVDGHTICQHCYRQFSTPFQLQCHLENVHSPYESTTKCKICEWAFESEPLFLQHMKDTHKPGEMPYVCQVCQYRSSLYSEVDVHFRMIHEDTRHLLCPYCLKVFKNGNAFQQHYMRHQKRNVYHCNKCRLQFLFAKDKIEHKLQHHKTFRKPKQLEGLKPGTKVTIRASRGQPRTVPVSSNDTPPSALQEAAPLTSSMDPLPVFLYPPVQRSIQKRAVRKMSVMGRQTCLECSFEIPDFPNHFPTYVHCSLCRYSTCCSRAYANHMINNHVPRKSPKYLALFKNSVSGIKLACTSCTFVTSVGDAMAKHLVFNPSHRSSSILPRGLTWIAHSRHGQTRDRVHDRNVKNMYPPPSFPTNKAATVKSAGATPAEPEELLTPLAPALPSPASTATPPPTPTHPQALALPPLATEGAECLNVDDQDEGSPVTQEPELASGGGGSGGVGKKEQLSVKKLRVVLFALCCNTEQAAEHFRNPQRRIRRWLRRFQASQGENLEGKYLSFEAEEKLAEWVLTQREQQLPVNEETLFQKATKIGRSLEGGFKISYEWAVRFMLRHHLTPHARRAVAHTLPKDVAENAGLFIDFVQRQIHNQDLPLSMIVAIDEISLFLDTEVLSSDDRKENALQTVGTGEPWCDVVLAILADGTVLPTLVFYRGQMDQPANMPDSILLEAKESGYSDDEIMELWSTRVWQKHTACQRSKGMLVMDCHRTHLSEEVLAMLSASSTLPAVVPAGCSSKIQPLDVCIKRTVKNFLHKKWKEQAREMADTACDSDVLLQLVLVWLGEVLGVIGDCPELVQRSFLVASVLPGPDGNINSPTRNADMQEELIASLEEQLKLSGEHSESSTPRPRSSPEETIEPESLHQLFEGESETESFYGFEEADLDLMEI
UniProt O00411: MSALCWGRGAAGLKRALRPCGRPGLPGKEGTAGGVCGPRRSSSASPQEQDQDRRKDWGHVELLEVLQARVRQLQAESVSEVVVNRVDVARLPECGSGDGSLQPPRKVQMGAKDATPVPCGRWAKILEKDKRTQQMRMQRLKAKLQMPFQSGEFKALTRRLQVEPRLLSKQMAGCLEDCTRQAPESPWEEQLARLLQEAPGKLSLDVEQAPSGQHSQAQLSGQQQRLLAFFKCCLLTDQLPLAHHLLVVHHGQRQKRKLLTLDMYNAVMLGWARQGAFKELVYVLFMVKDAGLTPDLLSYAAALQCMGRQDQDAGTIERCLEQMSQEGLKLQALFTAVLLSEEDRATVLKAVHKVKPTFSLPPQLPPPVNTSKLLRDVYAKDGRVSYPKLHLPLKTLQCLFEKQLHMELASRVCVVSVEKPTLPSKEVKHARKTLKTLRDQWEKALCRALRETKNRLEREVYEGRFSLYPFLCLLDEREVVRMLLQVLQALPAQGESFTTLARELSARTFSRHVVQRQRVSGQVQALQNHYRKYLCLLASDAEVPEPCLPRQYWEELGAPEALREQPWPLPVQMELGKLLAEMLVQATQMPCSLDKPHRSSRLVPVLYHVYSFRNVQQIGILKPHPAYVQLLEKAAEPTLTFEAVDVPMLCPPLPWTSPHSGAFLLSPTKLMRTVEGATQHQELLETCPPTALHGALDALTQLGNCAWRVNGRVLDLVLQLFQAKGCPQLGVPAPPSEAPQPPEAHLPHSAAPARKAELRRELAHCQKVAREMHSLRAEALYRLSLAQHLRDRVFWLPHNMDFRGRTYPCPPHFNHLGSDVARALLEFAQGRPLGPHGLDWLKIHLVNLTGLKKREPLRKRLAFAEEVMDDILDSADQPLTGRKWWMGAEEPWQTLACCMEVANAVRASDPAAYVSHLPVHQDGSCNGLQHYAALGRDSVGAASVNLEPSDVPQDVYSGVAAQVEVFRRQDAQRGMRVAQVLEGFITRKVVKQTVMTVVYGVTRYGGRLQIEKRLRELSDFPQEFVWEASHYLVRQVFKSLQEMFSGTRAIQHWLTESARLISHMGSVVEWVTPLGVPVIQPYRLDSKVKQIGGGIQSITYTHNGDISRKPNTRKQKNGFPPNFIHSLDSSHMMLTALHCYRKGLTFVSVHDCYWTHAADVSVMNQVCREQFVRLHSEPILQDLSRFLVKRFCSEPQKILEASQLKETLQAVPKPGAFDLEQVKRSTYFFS
UniProt Q9Y535: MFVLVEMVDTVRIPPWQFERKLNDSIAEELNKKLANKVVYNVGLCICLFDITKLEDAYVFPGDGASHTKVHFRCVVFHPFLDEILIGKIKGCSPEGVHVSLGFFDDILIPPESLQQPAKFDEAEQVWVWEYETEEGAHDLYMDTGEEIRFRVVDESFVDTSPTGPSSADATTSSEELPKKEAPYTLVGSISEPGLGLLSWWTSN
UniProt P11086: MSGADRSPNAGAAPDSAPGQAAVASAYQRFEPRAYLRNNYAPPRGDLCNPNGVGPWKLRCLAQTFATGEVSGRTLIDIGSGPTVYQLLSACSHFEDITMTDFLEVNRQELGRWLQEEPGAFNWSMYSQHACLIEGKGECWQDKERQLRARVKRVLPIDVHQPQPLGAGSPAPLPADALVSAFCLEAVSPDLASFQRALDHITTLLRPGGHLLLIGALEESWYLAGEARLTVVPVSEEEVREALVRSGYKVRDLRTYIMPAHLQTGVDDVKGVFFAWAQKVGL
UniProt Q8NEY8: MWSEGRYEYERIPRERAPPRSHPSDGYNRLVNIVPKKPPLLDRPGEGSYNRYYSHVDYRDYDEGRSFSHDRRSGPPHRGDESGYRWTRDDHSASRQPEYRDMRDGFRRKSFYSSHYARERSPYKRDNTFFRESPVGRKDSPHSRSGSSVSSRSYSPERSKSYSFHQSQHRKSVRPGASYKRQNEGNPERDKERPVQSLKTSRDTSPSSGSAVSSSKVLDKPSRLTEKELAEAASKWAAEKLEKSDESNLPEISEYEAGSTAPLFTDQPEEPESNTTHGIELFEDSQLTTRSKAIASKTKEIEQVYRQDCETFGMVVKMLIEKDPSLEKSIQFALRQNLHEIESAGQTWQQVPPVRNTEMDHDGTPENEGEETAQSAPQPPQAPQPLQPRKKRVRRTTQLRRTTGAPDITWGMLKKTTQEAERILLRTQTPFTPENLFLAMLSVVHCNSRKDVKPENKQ
UniProt P51805: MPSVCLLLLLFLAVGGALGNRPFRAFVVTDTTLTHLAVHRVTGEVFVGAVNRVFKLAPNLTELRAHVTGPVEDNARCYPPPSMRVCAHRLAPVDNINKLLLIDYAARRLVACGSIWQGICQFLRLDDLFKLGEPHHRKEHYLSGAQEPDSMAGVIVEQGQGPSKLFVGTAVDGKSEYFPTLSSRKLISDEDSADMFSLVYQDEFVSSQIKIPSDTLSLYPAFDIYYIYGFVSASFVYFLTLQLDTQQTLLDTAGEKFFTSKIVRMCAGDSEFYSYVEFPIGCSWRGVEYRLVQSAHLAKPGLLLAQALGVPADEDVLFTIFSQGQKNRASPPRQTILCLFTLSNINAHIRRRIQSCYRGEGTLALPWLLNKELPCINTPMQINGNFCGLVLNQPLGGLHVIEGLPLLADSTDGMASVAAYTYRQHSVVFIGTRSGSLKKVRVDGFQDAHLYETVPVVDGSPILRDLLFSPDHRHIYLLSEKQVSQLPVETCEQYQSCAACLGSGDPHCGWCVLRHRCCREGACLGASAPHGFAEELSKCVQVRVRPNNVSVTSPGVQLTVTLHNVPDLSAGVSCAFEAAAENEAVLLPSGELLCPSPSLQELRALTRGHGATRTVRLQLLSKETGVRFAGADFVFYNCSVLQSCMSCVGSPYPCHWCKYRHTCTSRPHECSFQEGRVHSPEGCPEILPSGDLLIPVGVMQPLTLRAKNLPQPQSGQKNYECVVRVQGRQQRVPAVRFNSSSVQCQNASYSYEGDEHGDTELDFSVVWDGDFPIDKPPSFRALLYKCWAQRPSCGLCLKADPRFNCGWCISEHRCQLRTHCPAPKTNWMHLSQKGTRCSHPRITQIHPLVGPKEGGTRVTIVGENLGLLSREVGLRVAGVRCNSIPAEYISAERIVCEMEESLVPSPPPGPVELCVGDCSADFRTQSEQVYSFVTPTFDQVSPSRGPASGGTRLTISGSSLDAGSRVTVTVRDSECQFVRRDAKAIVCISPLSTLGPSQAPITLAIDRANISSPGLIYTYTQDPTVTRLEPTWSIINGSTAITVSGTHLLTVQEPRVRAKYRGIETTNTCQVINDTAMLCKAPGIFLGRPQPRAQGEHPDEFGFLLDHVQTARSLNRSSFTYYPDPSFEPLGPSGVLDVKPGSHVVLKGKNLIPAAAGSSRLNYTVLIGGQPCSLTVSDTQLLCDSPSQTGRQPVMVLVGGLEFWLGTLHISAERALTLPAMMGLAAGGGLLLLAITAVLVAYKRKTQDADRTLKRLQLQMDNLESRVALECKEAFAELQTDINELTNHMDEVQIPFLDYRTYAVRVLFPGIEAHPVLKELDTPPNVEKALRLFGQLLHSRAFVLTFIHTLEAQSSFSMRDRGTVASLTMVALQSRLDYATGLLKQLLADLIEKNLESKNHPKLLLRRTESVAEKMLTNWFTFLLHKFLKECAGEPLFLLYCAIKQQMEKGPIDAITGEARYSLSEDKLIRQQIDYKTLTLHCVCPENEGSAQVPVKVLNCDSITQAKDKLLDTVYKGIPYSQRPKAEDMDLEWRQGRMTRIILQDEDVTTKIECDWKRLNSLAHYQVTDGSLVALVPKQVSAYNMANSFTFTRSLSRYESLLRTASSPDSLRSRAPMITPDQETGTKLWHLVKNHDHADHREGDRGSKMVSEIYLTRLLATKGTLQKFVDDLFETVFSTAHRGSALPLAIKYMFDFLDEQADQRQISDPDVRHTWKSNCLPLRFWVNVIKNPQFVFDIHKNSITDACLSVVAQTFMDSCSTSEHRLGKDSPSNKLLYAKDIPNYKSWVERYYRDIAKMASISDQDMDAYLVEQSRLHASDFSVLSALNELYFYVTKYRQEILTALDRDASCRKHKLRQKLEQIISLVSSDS
POLG, A0A3B3IS91, UniProt A0A3B3IS91, whole entry, looked up: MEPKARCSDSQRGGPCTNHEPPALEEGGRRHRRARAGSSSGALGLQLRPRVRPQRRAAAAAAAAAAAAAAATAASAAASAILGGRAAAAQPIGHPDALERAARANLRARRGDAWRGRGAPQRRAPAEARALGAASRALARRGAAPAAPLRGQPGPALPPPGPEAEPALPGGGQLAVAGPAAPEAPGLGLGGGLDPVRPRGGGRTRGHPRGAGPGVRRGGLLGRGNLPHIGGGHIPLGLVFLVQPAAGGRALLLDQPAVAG

Legend:
Experiment in all cases: log2 fold change, soluble protein after heating vs DMSO (PISA); higher = thermal stabilisation; K562 cells, 10 uM, 30 min; active = over 0.2 and 3.5 SD of the protein, either way, in both replicates (recomputed)
[1] = compound: C1=CC=C(C=C1)[C@H](COC2=CC3=C(C=C2)NC(=O)N3)NC(=O)C4=CC=CN(C4=O)CC5=CC(=C(C=C5)F)F
Procedure, shortened: (§1)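 Aliquots of K562 cells (2×10^6 cells/mL) treated with 10 μM compound for 30 min were heated for 3 min over 48°C-58°C. After pooling and extraction in PBS with 0.5% NP-40 at 4°C, soluble protein from a 21,000xg, 90 min spin was quantified by TMTpro 16plex LC-MS/MS with channel sums equalised. Thermal stability is expressed against control samples, from duplicates, as a log2 fold change.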

[2] = compound: CC1=C(SC2=C1C(=N[C@H](C3=NN=C(N32)C)CC(=O)N)C4=CC=C(C=C4)Cl)C
Procedure, shortened: as §1

[3] = compound: CC1=C2C(=CC=C1)N=C(N(C2=O)C3=CC=CC=C3C)CN4C=NC5=C(N=CN=C54)N
Procedure, shortened: as §1

[4] = compound: c1ccc([C@@H]2C[C@H]2NC2CCNCC2)cc1
Procedure, shortened: as §1

[5] = compound: Cc1sc2c(c1C)C(c1ccc(Cl)cc1)=N[C@@H](CC(=O)OC(C)(C)C)c1nnc(C)n1-2
Procedure, shortened: as §1

## PLP2 (UniProt Q04941)
[1]
  log2 fold change: inactive: -0.484
[2]
  log2 fold change: inactive: 0.033
[3]
  log2 fold change: inactive: -0.149
[4]
  log2 fold change: inactive: 0.185

## POT1 (UniProt Q9NUX5)
[1]
  log2 fold change: inactive: -0.081
[5]
  log2 fold change: inactive: 0.131

## POGZ (UniProt Q7Z3K3)
[2]
  log2 fold change: inactive: 0.056
[3]
  log2 fold change: inactive: 0.099
[5]
  log2 fold change: inactive: 0.025
[4]
  log2 fold change: inactive: -0.032

## POLRMT (UniProt O00411)
[3]
  log2 fold change: inactive: -0.144

## POLB (UniProt P06746)
[2]
  log2 fold change: inactive: 0.053
[5]
  log2 fold change: inactive: -0.107
[4]
  log2 fold change: inactive: -0.006

## POLR3H (UniProt Q9Y535)
[1]
  log2 fold change: inactive: -0.139
[2]
  log2 fold change: inactive: -0.077
[3]
  log2 fold change: inactive: -0.073
[4]
  log2 fold change: inactive: 0.029

## POLR2L (UniProt P62875)
[2]
  log2 fold change: inactive: 0.405
[3]
  log2 fold change: inactive: 0.146
[5]
  log2 fold change: inactive: -0.151
[4]
  log2 fold change: inactive: -0.145

## PNMT (UniProt P11086)
[2]
  log2 fold change: inactive: 0.072
[5]
  log2 fold change: inactive: 0.029
[4]
  log2 fold change: inactive: -0.002

## PPHLN1 isoform 3 (UniProt Q8NEY8)
[2]
  log2 fold change: inactive: 0.168
[5]
  log2 fold change: inactive: -0.074
[4]
  log2 fold change: inactive: 0.443

## PLXNA3 (UniProt P51805)
[1]
  log2 fold change: inactive: 0.181
[5]
  log2 fold change: inactive: 0.038

## POLD4 (UniProt Q9HCU8)
[1]
  log2 fold change: inactive: -0.07
[2]
  log2 fold change: inactive: 0.078
[5]
  log2 fold change: inactive: -0.044
[4]
  log2 fold change: inactive: 0.085

## POLG, A0A3B3IS91
[5]
  log2 fold change: inactive: -0.027

## POLR2J (UniProt P52435)
[1]
  log2 fold change: inactive: -0.054
[2]
  log2 fold change: inactive: 0.178
[4]
  log2 fold change: inactive: -0.024
